Laboratory results: the supplement of paper PMC10331698
± gives the standard deviation of the averaged measurements. Most values lie at the level of the controls, where differences are scatter.

What was measured:
Assay in all cases: level (log10 ratio to DMSO vehicle control); higher = higher biomarker level / cell amount than vehicle control
[1] = compound: C=C(C)C(=O)OCC(F)(F)C(F)(F)C(F)(F)F [2,2,3,3,4,4,4-Heptafluorobutyl methacrylate]; details: 2200 nM; in DMSO
Description: (§1)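 BioMAP Diversity Plus panel of 12 human primary cell co-culture systems (3C, 4H, LPS, SAg, BT, BF4T, BE3C, CASM3C, HDF3CGF, KF3CT, MyoF, Mphg). Compounds were added 1 h before stimulation and left for 24 h (MyoF 48 h; BT 72 h for soluble read-outs or 6 d for IgG). Biomarkers were read by ELISA, cytotoxicity by SRB, PBMC viability and proliferation by Alamar Blue. Each well value was divided by the mean of 8 DMSO control wells on the same plate and log10 transformed; duplicate blinded samples were tested at 4 concentrations.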

[2] = compound: C=CC(=O)OCC(F)(F)C(F)(F)C(F)(F)C(F)(F)COC(=O)C=C [1H,1H,6H,6H-Perfluorohexane-1,6-diol diacrylate]; details: 2200 nM; in DMSO
Description: as §1

[3] = compound: FC(F)(F)C(F)(F)C(F)(F)C(F)(F)C(F)(F)C(F)(F)C(F)(F)CCI [1-Iodo-1H,1H,2H,2H-perfluorononane]; details: in DMSO
Description: as §1

[4] = compound: FC(F)(F)C(F)(F)C(F)(F)C(F)(F)C(F)(F)C(F)(F)C(F)(F)I [1-Iodopentadecafluoroheptane]; details: in DMSO
Description: as §1

[5] = compound: FC(F)C(F)(F)COCC1CO1 [((2,2,3,3-Tetrafluoropropoxy)methyl)oxirane]; details: 2200 nM; in DMSO
Description: as §1

Perfluorooctanamide = compound: NC(=O)C(F)(F)C(F)(F)C(F)(F)C(F)(F)C(F)(F)C(F)(F)C(F)(F)F [Perfluorooctanamide]; details: 2200 nM; in DMSO
Description: as §1

Perfluoroundecanoic acid = compound: O=C(O)C(F)(F)C(F)(F)C(F)(F)C(F)(F)C(F)(F)C(F)(F)C(F)(F)C(F)(F)C(F)(F)C(F)(F)F [Perfluoroundecanoic acid]; details: in DMSO
Description: as §1

[6] = compound: O=C(O)C(F)(F)C(F)(F)C(F)(F)C(F)(F)C(F)(F)C(F)(F)C(F)(F)C(F)F [9-H-Perfluorononanoic acid]; details: 2200 nM; in DMSO
Description: as §1

Perfluorobutanoic acid = compound: O=C(O)C(F)(F)C(F)(F)C(F)(F)F [Perfluorobutanoic acid]; details: 2200 nM; in DMSO
Description: as §1

Perfluoropropanoic acid = compound: O=C(O)C(F)(F)C(F)(F)F [Perfluoropropanoic acid]; details: 2200 nM; in DMSO
Description: as §1

[7] = compound: O=C(O)C(F)(F)C(F)(F)OC(F)(F)F [Perfluoro-3-methoxypropanoic acid]; details: 2200 nM; in DMSO
Description: as §1

[8] = compound: O=C(O)C(F)(F)OC(F)(F)C(F)(F)OC(F)(F)C(=O)O [Perfluoro-3,6-dioxaoctane-1,8-dioic acid]; details: 2200 nM; in DMSO
Description: as §1

[9] = compound: O=C(O)C(F)(F)OC(F)(F)C(F)(F)OC(F)(F)C(F)(F)C(F)(F)C(F)(F)F [Perfluoro-3,6-dioxadecanoic acid]; details: 2200 nM; in DMSO
Description: as §1

[10] = compound: O=C(O)C=CC(F)(C(F)(F)F)C(F)(F)F [3-(Perfluoroisopropyl)-2-propenoic acid]; details: in DMSO
Description: as §1

[11] = compound: O=P(O)(O)CCC(F)(F)C(F)(F)C(F)(F)C(F)(F)C(F)(F)C(F)(F)C(F)(F)C(F)(F)F [((Perfluorooctyl)ethyl)phosphonic acid]; details: 2200 nM; in DMSO
Description: as §1

[12] = compound: O=S(=O)(Cl)C(F)(F)C(F)(F)C(F)(F)C(F)(F)C(F)(F)C(F)(F)C(F)(F)C(F)(F)F [Perfluoro-1-octanesulfonyl chloride]; details: 2200 nM; in DMSO
Description: as §1

[13] = compound: OCC(F)(F)C(F)(F)C(F)(F)C(F)(F)C(F)(F)C(F)(F)C(F)(F)C(F)(F)C(F)(F)C(F)(F)C(F)(F)F [11:1 Fluorotelomer alcohol]; details: in DMSO
Description: as §1

[14] = compound: OCCC(F)(F)C(F)(F)C(F)(F)C(F)(F)C(F)(F)C(F)(F)C(F)(F)C(F)(F)F [8:2 Fluorotelomer alcohol]; details: 2200 nM; in DMSO
Description: as §1

| Test System | level (log10) [1] | level (log10) [2] | level (log10) ([3]; 740 nM) | level (log10) ([3]; 2200 nM) | level (log10) ([3]; 6700 nM) | level (log10) ([3]; 20000 nM) | level (log10) ([4]; 740 nM) | level (log10) ([4]; 2200 nM) | level (log10) ([4]; 6700 nM) | level (log10) ([4]; 20000 nM) | level (log10) [5] | level (log10) (Perfluorooctanamide) | level (log10) (Perfluoroundecanoic acid; 740 nM) | level (log10) (Perfluoroundecanoic acid; 2200 nM) | level (log10) [6] | level (log10) (Perfluorobutanoic acid) | level (log10) (Perfluoropropanoic acid) | level (log10) [7] | level (log10) [8] | level (log10) [9] | level (log10) ([10]; 2200 nM) | level (log10) ([10]; 6700 nM) | level (log10) ([10]; 20000 nM) | level (log10) ([10]; 60000 nM) | level (log10) [11] | level (log10) [12] | level (log10) ([13]; 370 nM) | level (log10) ([13]; 1100 nM) | level (log10) ([13]; 3300 nM) | level (log10) ([13]; 10000 nM) | level (log10) [14] |
| --- | --- | --- | --- | --- | --- | --- | --- | --- | --- | --- | --- | --- | --- | --- | --- | --- | --- | --- | --- | --- | --- | --- | --- | --- | --- | --- | --- | --- | --- | --- | --- |
| 3C:CXCL9/MIG | 0.004 ± 0.024 | -0.0015 ± 0.0035 | 0.006 ± 0.0071 | 0.003 ± 0.0042 | 0.002 ± 0.0042 | 0.007 ± 0.013 | -0.003 ± 0.0014 | -0.0015 ± 0.0078 | 0.001 ± 0.0099 | -0.002 ± 0.0042 | 0.0015 ± 0.022 | -0.002 ± 0.016 | -0.0055 ± 0.0092 | 0.0015 ± 0.00071 | -0.0005 ± 0.00071 | -0.007 ± 0.014 | 0.003 ± 0.0057 | 0.0105 ± 0.0021 | 0.005 ± 0.0085 | -0.007 ± 0.027 | 0.013 ± 0.014 | 0.004 ± 0.0071 | -0.0105 ± 0.0064 | 0.0045 ± 0.016 | 0.01 ± 0.0028 | -0.01 ± 0.0057 | -0.0065 ± 0.00071 | -0.001 ± 0.014 | 0.0045 ± 0.0064 | 0.0145 ± 0.016 | -0.0005 ± 0.005 |
| CASM3C:PAI-I | -0.0035 ± 0.0021 | 0.004 ± 0.0057 | 0.004 ± 0.021 | 0.0085 ± 0.0064 | 0.0015 ± 0.00071 | 0.0035 ± 0.00071 | -0.004 ± 0.0042 | -0.0115 ± 0.011 | -0.013 ± 0.011 | 0.0075 ± 0.011 | 0.005 ± 0.0014 | 0.0085 ± 0.0064 | -0.008 ± 0.013 | -0.0185 ± 0.025 | 0.0145 ± 0.03 | 0.0035 ± 0.0092 | 0.0065 ± 0.0035 | 0.013 ± 0.028 | 0.0055 ± 0.025 | 0.009 ± 0.0071 | 0.0115 ± 0.019 | 0.006 ± 0.0028 | 0 ± 0.0057 | 0.012 ± 0.0057 | 0.0165 ± 0.0092 | -0.005 ± 0.0071 | -0.002 ± 0.0071 | -0.001 ± 0.0071 | -0.0055 ± 0.005 | -0.0005 ± 0.015 | -0.0015 ± 0.018 |
| SAg:SRB | 0.004 ± 0.0085 | 0.0005 ± 0.005 | 0.011 ± 0.011 | 0.016 ± 0.0028 | 0.0175 ± 0.005 | 0.031 ± 0.017 | 0.0045 ± 0.0064 | 0.0005 ± 0.0064 | -0.007 ± 0.0042 | 0.0025 ± 0.0021 | -0.004 ± 0.0071 | 0.006 ± 0.0099 | 0.0045 ± 0.019 | 0.0005 ± 0.00071 | 0.01 ± 0.0099 | -0.021 ± 0.0014 | -0.017 ± 0.0099 | -0.005 ± 0.02 | 0.0035 ± 0.015 | -0.0145 ± 0.0078 | -0.0035 ± 0.012 | -0.001 ± 0.0042 | -0.007 ± 0.025 | -0.0065 ± 0.028 | -0.0115 ± 0.0078 | -0.002 ± 0.0042 | -0.0025 ± 0.016 | -0.0415 ± 0.0092 | -0.066 ± 0.0028 | -0.065 ± 0.013 | -0.0155 ± 0.005 |
| 4H:CD62P/P-selectin | 0.074 ± 0.0099 | -0.0145 ± 0.0035 | 0.019 | 0.017 ± 0.013 | 0.0005 ± 0.037 | -0.0185 ± 0.06 | -0.018 ± 0.018 | 0.038 ± 0.065 | 0.0125 ± 0.021 | 0.0035 ± 0.022 | -0.0025 ± 0.047 | -0.0295 ± 0.043 | 0 ± 0.033 | 0.014 ± 0.035 | 0.047 ± 0.079 | 0.0225 ± 0.044 | -0.0405 ± 0.023 | -0.008 ± 0.018 | 0.013 ± 0.0042 | 0.0095 ± 0.071 | -0.0155 ± 0.0078 | -0.001 ± 0.02 | -0.0105 ± 0.012 | 0.023 ± 0.0085 | -0.0275 ± 0.0035 | 0.012 ± 0.0057 | -0.031 ± 0.0042 | -0.111 ± 0.042 | -0.095 ± 0.079 | -0.139 ± 0.13 | -0.014 ± 0.0085 |
| BF4T:SRB | -0.0005 ± 0.025 | 0.0055 ± 0.015 | -0.003 | -0.005 ± 0.0014 | -0.001 ± 0.0042 | 0.001 ± 0.0042 | -0.004 ± 0.0042 | -0.011 ± 0.0099 | -0.0085 ± 0.0092 | -0.008 ± 0.0014 | 0.0075 ± 0.016 | 0.0035 ± 0.0092 | 0.002 ± 0.013 | -0.017 ± 0.0014 | -0.0035 ± 0.005 | 0 ± 0.0057 | -0.0055 ± 0.00071 | -0.0015 ± 0.021 | -0.0055 ± 0.011 | -0.0045 ± 0.013 | 0.0025 ± 0.0078 | -0.008 ± 0.011 | -0.008 ± 0.0099 | 0.006 ± 0.018 | 0.0005 ± 0.0035 | 0.0025 ± 0.005 | -0.0015 ± 0.0092 | -0.003 ± 0.0014 | -0.0075 ± 0.0064 | 0.001 ± 0.014 | 0.005 ± 0.0099 |
| CASM3C:CXCL9/MIG | 0.009 ± 0.037 | -0.0025 ± 0.061 | 0.0125 ± 0.025 | 0.0155 ± 0.0035 | -0.0355 ± 0.025 | -0.057 ± 0.042 | -0.0075 ± 0.043 | -0.0505 ± 0.056 | -0.0165 ± 0.025 | 0.018 ± 0.018 | 0.018 ± 0.028 | 0.014 ± 0.059 | -0.01 ± 0.034 | -0.004 ± 0.0071 | -0.003 ± 0.037 | 0.0025 ± 0.015 | 0.0225 ± 0.033 | 0.026 ± 0.073 | 0.023 ± 0.051 | 0.0235 ± 0.032 | 0.0235 ± 0.06 | -0.004 ± 0.0099 | 0.002 ± 0.0057 | 0.027 ± 0.023 | 0.0445 ± 0.056 | -0.009 ± 0.071 | 0.0035 ± 0.005 | 0.0005 ± 0.0035 | -0.002 ± 0.0028 | 0.014 ± 0.021 | 0.028 ± 0.017 |
| LPS:IL-1alpha | -0.0105 ± 0.023 | 0.0225 ± 0.03 | -0.0175 ± 0.005 | -0.0085 ± 0.012 | -0.008 ± 0.041 | 0.031 ± 0.016 | -0.0225 ± 0.071 | -0.077 ± 0.11 | -0.0655 ± 0.03 | -0.0495 ± 0.047 | 0.007 ± 0.03 | -0.022 ± 0.011 | -0.115 ± 0.028 | -0.0935 ± 0.057 | -0.005 ± 0.013 | -0.0075 ± 0.022 | -0.039 ± 0.011 | -0.0215 ± 0.023 | -0.029 ± 0.062 | 0.0025 ± 0.029 | 0.044 ± 0.069 | 0.025 ± 0.034 | 0.0195 ± 0.05 | 0.0605 ± 0.023 | -0.012 ± 0.018 | 0.0105 ± 0.033 | -0.0025 ± 0.0092 | -0.0655 ± 0.0092 | -0.14 ± 0.0035 | -0.144 ± 0.012 | -0.003 ± 0.016 |
